Experimental data published in ChEMBL document CHEMBL1909046, “DrugMatrix in vitro pharmacology data”.

Amino acid sequences for entries named in this document (tags omitted). A change or cut given only in a name is not applied to a line headed by its entry.
UniProt P08172, whole entry: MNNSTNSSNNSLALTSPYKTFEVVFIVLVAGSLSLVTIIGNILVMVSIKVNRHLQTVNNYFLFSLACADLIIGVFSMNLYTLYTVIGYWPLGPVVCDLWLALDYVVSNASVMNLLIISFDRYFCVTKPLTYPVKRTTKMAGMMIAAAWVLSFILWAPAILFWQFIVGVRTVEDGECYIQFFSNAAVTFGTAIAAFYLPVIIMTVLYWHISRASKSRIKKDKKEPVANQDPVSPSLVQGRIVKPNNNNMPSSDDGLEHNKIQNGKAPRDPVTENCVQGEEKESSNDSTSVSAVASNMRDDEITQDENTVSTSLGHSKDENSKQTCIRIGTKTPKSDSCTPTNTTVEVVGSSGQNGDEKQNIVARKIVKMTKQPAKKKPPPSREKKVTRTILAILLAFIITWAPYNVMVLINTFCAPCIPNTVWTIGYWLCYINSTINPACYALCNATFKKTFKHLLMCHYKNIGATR
UniProt P33261, whole entry: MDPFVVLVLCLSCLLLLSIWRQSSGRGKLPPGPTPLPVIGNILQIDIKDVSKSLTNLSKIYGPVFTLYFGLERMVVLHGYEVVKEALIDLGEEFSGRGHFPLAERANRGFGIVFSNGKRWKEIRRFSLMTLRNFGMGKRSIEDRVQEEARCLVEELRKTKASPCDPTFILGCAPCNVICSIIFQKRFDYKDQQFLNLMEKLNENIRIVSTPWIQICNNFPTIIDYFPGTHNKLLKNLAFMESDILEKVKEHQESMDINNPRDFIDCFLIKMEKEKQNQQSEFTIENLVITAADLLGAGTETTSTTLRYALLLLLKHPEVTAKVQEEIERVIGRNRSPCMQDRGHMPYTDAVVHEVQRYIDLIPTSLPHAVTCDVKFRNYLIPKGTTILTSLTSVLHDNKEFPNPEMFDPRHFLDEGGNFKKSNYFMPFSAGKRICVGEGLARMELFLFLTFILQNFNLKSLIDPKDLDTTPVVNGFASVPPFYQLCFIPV
UniProt P11712, whole entry: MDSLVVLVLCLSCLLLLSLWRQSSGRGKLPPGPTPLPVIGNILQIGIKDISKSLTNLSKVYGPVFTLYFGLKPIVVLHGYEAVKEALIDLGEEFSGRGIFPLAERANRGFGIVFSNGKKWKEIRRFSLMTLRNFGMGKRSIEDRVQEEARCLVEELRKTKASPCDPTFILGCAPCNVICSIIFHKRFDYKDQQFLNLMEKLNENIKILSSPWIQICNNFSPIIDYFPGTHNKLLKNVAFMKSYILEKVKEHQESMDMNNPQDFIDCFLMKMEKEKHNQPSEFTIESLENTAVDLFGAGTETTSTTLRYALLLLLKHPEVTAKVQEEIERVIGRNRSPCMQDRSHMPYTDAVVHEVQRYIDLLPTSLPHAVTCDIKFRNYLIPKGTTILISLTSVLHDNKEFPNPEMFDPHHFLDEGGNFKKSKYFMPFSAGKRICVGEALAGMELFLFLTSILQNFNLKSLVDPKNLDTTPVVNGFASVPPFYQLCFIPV
UniProt P08913, whole entry: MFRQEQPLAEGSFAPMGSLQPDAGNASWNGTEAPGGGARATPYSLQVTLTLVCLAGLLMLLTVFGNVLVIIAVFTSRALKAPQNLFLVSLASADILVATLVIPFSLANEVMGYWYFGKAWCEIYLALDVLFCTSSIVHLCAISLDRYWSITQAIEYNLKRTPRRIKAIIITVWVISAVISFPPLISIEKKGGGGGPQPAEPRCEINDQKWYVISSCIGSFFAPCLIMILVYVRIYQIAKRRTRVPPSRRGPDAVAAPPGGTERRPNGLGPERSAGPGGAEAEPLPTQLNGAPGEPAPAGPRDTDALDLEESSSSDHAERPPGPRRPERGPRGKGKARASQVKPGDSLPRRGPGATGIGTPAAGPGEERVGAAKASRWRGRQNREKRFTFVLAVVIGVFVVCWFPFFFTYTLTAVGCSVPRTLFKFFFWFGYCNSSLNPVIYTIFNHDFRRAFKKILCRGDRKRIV
UniProt P23975, whole entry: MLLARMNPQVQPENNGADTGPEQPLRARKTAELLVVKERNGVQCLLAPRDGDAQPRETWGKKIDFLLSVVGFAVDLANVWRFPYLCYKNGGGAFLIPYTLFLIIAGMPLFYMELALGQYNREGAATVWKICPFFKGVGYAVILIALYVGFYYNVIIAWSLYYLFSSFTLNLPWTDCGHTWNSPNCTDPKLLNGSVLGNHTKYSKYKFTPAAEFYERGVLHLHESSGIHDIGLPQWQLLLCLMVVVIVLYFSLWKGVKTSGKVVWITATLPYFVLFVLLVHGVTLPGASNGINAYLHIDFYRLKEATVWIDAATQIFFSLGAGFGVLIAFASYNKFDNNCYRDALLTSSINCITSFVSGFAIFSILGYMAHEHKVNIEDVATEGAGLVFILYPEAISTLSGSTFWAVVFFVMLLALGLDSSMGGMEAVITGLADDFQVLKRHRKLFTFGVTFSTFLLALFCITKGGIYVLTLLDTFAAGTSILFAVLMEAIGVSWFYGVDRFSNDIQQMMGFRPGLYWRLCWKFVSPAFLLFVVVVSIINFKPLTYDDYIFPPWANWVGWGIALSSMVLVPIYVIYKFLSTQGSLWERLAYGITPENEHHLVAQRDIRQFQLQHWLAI
UniProt Q01959, whole entry: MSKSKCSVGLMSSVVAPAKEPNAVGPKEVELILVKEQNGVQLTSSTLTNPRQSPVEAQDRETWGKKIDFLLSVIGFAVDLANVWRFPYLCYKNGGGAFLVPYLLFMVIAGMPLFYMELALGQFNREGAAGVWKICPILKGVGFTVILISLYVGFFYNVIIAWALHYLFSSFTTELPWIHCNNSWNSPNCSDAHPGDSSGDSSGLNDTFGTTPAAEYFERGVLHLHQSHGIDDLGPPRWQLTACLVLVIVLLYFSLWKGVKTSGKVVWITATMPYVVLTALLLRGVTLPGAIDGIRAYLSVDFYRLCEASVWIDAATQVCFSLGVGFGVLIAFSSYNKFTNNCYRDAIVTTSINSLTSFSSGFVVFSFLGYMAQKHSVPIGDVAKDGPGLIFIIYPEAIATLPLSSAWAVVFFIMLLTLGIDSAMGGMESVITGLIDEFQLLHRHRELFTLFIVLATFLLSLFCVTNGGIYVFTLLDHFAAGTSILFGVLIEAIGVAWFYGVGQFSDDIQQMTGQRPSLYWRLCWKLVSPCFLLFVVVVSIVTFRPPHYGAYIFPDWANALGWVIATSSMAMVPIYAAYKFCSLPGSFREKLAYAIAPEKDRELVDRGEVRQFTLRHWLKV
UniProt Q12809: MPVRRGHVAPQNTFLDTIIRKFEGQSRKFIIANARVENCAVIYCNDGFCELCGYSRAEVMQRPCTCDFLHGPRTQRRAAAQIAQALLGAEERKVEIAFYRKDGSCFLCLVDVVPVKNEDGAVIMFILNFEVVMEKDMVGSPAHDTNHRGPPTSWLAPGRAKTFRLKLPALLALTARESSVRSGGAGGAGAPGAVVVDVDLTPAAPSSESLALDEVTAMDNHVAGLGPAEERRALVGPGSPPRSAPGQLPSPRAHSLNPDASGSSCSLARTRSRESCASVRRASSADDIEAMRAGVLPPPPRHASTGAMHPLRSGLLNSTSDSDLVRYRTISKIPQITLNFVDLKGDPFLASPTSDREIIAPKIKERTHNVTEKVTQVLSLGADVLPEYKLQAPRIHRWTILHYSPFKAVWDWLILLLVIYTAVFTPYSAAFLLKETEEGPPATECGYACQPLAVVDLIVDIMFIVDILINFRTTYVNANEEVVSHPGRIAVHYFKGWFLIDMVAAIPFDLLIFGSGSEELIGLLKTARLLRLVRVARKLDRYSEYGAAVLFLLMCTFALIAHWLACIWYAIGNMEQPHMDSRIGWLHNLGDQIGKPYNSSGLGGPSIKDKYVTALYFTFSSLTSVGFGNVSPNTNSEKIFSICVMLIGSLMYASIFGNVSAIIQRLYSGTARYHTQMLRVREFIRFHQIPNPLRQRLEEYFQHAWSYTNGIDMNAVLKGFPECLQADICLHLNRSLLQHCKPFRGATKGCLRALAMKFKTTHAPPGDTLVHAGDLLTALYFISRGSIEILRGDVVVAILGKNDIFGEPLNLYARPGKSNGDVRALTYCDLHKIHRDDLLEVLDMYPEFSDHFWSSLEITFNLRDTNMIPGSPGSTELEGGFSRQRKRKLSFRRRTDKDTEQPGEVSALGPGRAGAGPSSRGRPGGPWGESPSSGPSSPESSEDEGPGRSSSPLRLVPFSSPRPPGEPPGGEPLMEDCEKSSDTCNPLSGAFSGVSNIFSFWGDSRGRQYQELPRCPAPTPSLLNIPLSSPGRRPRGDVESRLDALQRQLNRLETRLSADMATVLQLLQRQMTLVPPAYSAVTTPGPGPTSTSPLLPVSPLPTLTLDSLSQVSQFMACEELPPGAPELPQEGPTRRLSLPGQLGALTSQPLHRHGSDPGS

Tests used:
[1] = molecular target: Muscarinic acetylcholine receptor M2 (Homo sapiens, UniProt P08172); format: cell membranes, Membrane; conditions: cho-k1; also: in other assays of this panel Not Active means under 50% inhibition at 10 µM
Cytochrome P450 2C19 = Cytochrome P450 2C19 (Homo sapiens, UniProt P33261); also: in other assays of this panel Not Active means under 50% inhibition at 10 µM
Cytochrome P450 2C9 = Cytochrome P450 2C9 (Homo sapiens, UniProt P11712); also: in other assays of this panel Not Active means under 50% inhibition at 10 µM
[2] = molecular target: T1, 5-hydroxytryptamine receptor 2C (Homo sapiens, UniProt P28335); experiment: DRUGMATRIX: Serotonin (5-Hydroxytryptamine) 5-HT2C radioligand binding (ligand: [3H] Mesulergine); format: cell membranes, CHO-K1, Membrane; conditions: Not Active = under 50% inhibition at 10 µM
T1 sequence (P28335 whole entry): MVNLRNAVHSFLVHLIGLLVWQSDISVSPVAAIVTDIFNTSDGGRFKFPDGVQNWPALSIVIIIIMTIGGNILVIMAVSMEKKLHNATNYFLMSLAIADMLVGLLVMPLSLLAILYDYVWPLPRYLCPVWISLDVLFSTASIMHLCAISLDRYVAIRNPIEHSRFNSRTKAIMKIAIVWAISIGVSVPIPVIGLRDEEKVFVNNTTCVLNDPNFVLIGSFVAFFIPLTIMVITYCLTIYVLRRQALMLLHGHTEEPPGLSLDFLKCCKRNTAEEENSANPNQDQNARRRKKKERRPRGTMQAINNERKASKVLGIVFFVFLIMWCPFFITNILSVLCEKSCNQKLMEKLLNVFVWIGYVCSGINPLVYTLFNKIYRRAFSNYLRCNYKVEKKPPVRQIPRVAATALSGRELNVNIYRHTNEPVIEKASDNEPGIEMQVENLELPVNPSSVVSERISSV

[3] = molecular target: Alpha-2A adrenergic receptor (Homo sapiens, UniProt P08913); format: cell membranes, Membrane; conditions: sf9; also: in other assays of this panel Not Active means under 50% inhibition at 10 µM
[4] = molecular target: Sodium-dependent noradrenaline transporter (Homo sapiens, UniProt P23975); experiment: DRUGMATRIX: Norepinephrine Transporter radioligand binding (ligand: [125I] RTI-55); format: cell membranes, Membrane; conditions: mdck; Not Active = under 50% inhibition at 10 µM
[5] = molecular target: Sodium-dependent dopamine transporter (Homo sapiens, UniProt Q01959); experiment: DRUGMATRIX: Dopamine Transporter radioligand binding (ligand: [125I] RTI-55); format: cell membranes, Membrane; conditions: cho-k1; Not Active = under 50% inhibition at 10 µM
[6] = molecular target: Voltage-gated inwardly rectifying potassium channel KCNH2 (Homo sapiens, UniProt Q12809); also: in other assays of this panel Not Active means under 50% inhibition at 10 µM
[7] = DRUGMATRIX: Sodium/nucleoside co-transporter radioligand binding (ligand: nitrobenzylthioinosine); format: cell membranes, Cavia porcellus, Dunkin-Hartley, Cerebral cortex, Membrane; conditions: Not Active = under 50% inhibition at 10 µM
[8] = DRUGMATRIX: ATPase, Na+/K+ enzyme inhibition (substrate: ATP); format: tissue-based, Sus scrofa, Heart; conditions: Not Active = under 50% inhibition at 10 µM
[9] = DRUGMATRIX: Atrial Natriuretic Factor (ANF) radioligand binding (ligand: [125I] ANF (rat)); format: cell membranes, Cavia porcellus, Dunkin-Hartley, Adrenal gland, Membrane; conditions: Not Active = under 50% inhibition at 10 µM
[10] = DRUGMATRIX: beta-Lactamase enzyme inhibition (substrate: Nitrocefin); set-up: species or system Bacillus cereus; conditions: Not Active = under 50% inhibition at 10 µM
[11] = DRUGMATRIX: Serotonin (5-Hydroxytryptamine) 5-HT3 radioligand binding (ligand: [3H] GR-65630); format: cell membranes, Membrane; conditions: hek293; Not Active = under 50% inhibition at 10 µM
[12] = DRUGMATRIX: Sigma2 radioligand binding (ligand: [3H] Ifenprodil); format: cell membranes, Rattus norvegicus, Wistar, Brain, Membrane; conditions: Not Active = under 50% inhibition at 10 µM
[13] = DRUGMATRIX: Tumor Necrosis Factor (TNF), Non-Selective radioligand binding (ligand: [125I] TNF-alpha); format: cell membranes, Membrane; conditions: u-937; Not Active = under 50% inhibition at 10 µM
[14] = DRUGMATRIX: Calcium Channel Type L, Phenylalkylamine radioligand binding (ligand: [3H] (-)-Desmethoxyverapamil (D-888)); format: cell membranes, Rattus norvegicus, Wistar, Brain, Membrane; conditions: Not Active = under 50% inhibition at 10 µM
[15] = DRUGMATRIX: GABAA, Muscimol, Central radioligand binding (ligand: [3H] Muscimol); format: cell membranes, Rattus norvegicus, Wistar, Brain, Membrane; conditions: Not Active = under 50% inhibition at 10 µM
[16] = DRUGMATRIX: GABAA, Flunitrazepam, Central radioligand binding (ligand: [3H] Flunitrazepam); format: cell membranes, Rattus norvegicus, Wistar, Brain, Membrane; conditions: Not Active = under 50% inhibition at 10 µM
[17] = DRUGMATRIX: GABAA, Chloride Channel, TBOB radioligand binding (ligand: [3H] TBOB); format: cell membranes, Rattus norvegicus, Wistar, Cerebral cortex, Membrane; conditions: Not Active = under 50% inhibition at 10 µM
[18] = DRUGMATRIX: Glutamate, Kainate radioligand binding (ligand: [3H] Kainic acid); format: cell membranes, Rattus norvegicus, Wistar, Brain, Membrane; conditions: Not Active = under 50% inhibition at 10 µM
[19] = DRUGMATRIX: Glutamate, NMDA, Agonism radioligand binding (ligand: [3H] CGP-39653); format: cell membranes, Rattus norvegicus, Wistar, Cerebral cortex, Membrane; conditions: Not Active = under 50% inhibition at 10 µM
[20] = DRUGMATRIX: Leukotriene, BLT (LTB4) radioligand binding (ligand: [3H]LTB4); format: cell membranes, Membrane; conditions: u-937; Not Active = under 50% inhibition at 10 µM
[21] = DRUGMATRIX: Phorbol Ester radioligand binding (ligand: [3H] PDBu); format: cell membranes, Mus musculus, ICR, Brain, Membrane; conditions: Not Active = under 50% inhibition at 10 µM
[22] = DRUGMATRIX: Phosphodiesterase PDE3 enzyme inhibition (substrate: [3H]cAMP + cAMP); format: tissue-based, Homo sapiens; conditions: platelet; Not Active = under 50% inhibition at 10 µM
[23] = DRUGMATRIX: Phosphodiesterase PDE4 enzyme inhibition (substrate: [3H]cAMP + cAMP); conditions: u-937, Not Active = under 50% inhibition at 10 µM
[24] = DRUGMATRIX: Potassium Channel [KATP] radioligand binding (ligand: [3H] Glyburide); format: cell membranes, Membrane; conditions: hit-t15; Not Active = under 50% inhibition at 10 µM

## Clc1ccc(CSC(Cn2ccnc2)c2ccc(Cl)cc2Cl)cc1 (stereo unspecified) [SULCONAZOLE]
[1]
  IC50: Not Active
Cytochrome P450 2C19
  IC50: 16 nM
Cytochrome P450 2C9
  IC50: 200 nM

## CN(C)CCN(Cc1cccs1)c1ccccn1
[2]
  IC50: 744 nM
  Ki: 390 nM

## CCN(CC)CCOC(=O)C1(C2CCCCC2)CCCCC1 [DICYCLOMINE]
[3]
  IC50: Not Active
[4]
  IC50: Not Active
[5]
  IC50: Not Active
[6]
  IC50: 20600 nM
  Ki: 16900 nM

## C[S+]([O-])c1ccc(-c2nc(-c3ccc(F)cc3)c(-c3ccncc3)[nH]2)cc1 (stereo unspecified) [SB-203580]
[7]; read-out: IC50
  IC50: 5920 nM
[7]; read-out: Ki
  Ki: 2030 nM
[8]
  IC50: Not Active
  Ki: Not Active
[9]
  IC50: Not Active
  Ki: Not Active
[10]
  IC50: Not Active
  Ki: Not Active
[11]
  IC50: Not Active
  Ki: Not Active
[12]
  IC50: Not Active
  Ki: Not Active
[13]
  IC50: Not Active
  Ki: Not Active
[14]
  IC50: Not Active
  Ki: Not Active
[15]
  IC50: Not Active
  Ki: Not Active
[16]
  IC50: Not Active
  Ki: Not Active
[17]
  IC50: Not Active
  Ki: Not Active
[18]
  IC50: Not Active
  Ki: Not Active
[19]
  IC50: Not Active
  Ki: Not Active
[20]
  IC50: Not Active
  Ki: Not Active
[21]
  IC50: Not Active
  Ki: Not Active
[22]
  IC50: Not Active
  Ki: Not Active
[23]
  Ki: Note: corresponding IC50 reported as Active
[23]; read-out: IC50
  IC50: 11600 nM
[24]
  IC50: Not Active
  Ki: Not Active
